Results are given in words; binding and its absence hold for the method and conditions named.
Legend:
Experiment in all cases: pull-down
[1] = molecular target: GST-fused VDAC1 N-terminal overhang with mutated AIM (Arabidopsis) (UniProt Q9SRH5)
[2] = molecular target: GST-fused VDAC3 N-terminal overhang with mutated AIM (Arabidopsis) (UniProt Q9SMX3)
[3] = molecular target: GST-fused VDAC2 N-terminal overhang with mutated AIM (Arabidopsis) (UniProt Q9FJX3)

Sequences of proteins named here, by UniProt entry; tags and fusion partners are left off. A change or cut given only in a name is not applied to a line headed by its entry.
UniProt Q9SRH5: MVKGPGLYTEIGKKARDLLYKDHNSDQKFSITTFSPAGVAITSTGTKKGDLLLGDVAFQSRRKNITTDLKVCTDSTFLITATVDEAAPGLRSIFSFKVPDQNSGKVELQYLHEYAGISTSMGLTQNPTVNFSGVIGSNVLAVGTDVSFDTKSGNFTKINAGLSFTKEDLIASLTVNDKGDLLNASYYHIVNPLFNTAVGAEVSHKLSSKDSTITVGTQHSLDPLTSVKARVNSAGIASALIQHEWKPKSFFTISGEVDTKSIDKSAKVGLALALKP
UniProt Q9SMX3: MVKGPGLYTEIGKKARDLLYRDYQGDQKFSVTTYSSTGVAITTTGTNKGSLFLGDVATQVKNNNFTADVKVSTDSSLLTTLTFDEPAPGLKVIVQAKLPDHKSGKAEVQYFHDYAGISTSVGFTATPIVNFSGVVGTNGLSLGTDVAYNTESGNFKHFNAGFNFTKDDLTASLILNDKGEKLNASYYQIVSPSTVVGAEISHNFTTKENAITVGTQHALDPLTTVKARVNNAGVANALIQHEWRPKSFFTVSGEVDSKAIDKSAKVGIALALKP
UniProt Q9FJX3: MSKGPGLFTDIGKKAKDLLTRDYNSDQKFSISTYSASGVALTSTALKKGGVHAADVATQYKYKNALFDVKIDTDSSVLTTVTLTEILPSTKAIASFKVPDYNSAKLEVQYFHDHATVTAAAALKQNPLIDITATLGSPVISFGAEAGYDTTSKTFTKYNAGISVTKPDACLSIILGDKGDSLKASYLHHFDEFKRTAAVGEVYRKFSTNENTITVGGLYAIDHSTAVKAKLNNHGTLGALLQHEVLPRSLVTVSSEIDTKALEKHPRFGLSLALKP

binding [1]: no binding | binding [2]: no binding | binding [3]: no binding
B1: 6×His-tagged ATG8e (natural protein, Arabidopsis, UniProt Q8S926 1-118, looked up)
chain: MNKGSIFKMDNDFEKRKAEAGRIREKYPDRIPVIVEKAEKSEVPNIDKKKYLVPSDLTVGQFVYVIRKRIKLSAEKAIFIFVDNVLPPTGELMSSVYEDKKDEDGFLYITYSGENTFG

Reference: paper doi:10.1101/2025.05.29.656919 (bioRxiv, 2025)
